Structures are written as SMILES. This is one part of the list. For part of these data: Most values come without repeats; read them as rough.

Settings in all cases: RNA concentration 10 µM; fragment concentration 200 µM; 293 K
For assay [1], the system named is SARS-CoV-2 3_SL3base RNA. Nature of the assay: T2 signal reduction relative to ligand without RNA (fraction); higher = stronger binding.
In another assay the test system is SARS-CoV-2 5'-UTR RNA. The description is as above.
The next assay concerns SARS-CoV-2 3'-UTR RNA. Nature of the assay: NMR binding call after quantification (hit when 2 of 3 NMR criteria are met) (binary (1 = binding, 0 = not binding)); higher = binding.
The next assay deals with SARS-CoV-2 3_SL1 RNA. The assay is described as above.
The next assay concerns SARS-CoV-2 3_SL1+2 RNA. The description is as above.
For another assay, the system named is SARS-CoV-2 3_SL2 RNA. The assay is described as above.
In assay [2] the test system is SARS-CoV-2 3_SL3base RNA. The assay is described as above.
Another assay concerns SARS-CoV-2 3_s2m RNA. The assay is described as above.
For the next assay, the system named is SARS-CoV-2 5_SL5 RNA. Nature of the assay: T2 signal reduction relative to ligand without RNA (fraction); higher = stronger binding.
A further assay deals with SARS-CoV-2 5_SL8 RNA. Described as above.
In the next assay the test system is SARS-CoV-2 5_SL7 RNA. The description is as above.
In a further assay the test system is SARS-CoV-2 5_SL4 RNA. Described as above.

Regarding `O=C(Nc1ccc2[nH]c(=O)[nH]c2c1)c1ccco1`, the figures for the T2 signal reduction with SARS-CoV-2 3_SL3base RNA [1] and with SARS-CoV-2 5'-UTR RNA were 0.43 and 0.62, respectively. Also, the NMR binding call in the assay on SARS-CoV-2 3'-UTR RNA was 1; with SARS-CoV-2 3_SL1 RNA, 0; with SARS-CoV-2 3_SL1+2 RNA, 0; in the assay with SARS-CoV-2 3_SL2 RNA it was 0; in the assay on SARS-CoV-2 3_SL3base RNA [2] it was 1; with SARS-CoV-2 3_s2m RNA, 0.

Consider `O=C(Nc1ccc2ncccc2c1)c1ccccc1`, for which the T2 signal reduction in the assay on SARS-CoV-2 3_SL3base RNA [1] amounted to 0.57; in the assay with SARS-CoV-2 5'-UTR RNA it was 0.59; with SARS-CoV-2 5_SL5 RNA, 0.26; in the assay with SARS-CoV-2 5_SL8 RNA, 0.33. Also, the NMR binding call is 1 in the assay on SARS-CoV-2 3'-UTR RNA; 0 in the assay with SARS-CoV-2 3_SL1 RNA; 0 with SARS-CoV-2 3_SL2 RNA; 1 in the assay on SARS-CoV-2 3_SL3base RNA [2]; 0 in the assay with SARS-CoV-2 3_s2m RNA.

For the molecule `CCNCc1cccc2[nH]ccc12`, the T2 signal reduction in the assay on SARS-CoV-2 5'-UTR RNA came to 0.38. The NMR binding call in the assay with SARS-CoV-2 3'-UTR RNA, in the assay on SARS-CoV-2 3_SL1 RNA, with SARS-CoV-2 3_SL1+2 RNA, with SARS-CoV-2 3_SL2 RNA, in the assay with SARS-CoV-2 3_SL3base RNA [2] and with SARS-CoV-2 3_s2m RNA was 0 throughout.

For `c1nc(N2CCC2)c2[nH]cnc2n1`, the T2 signal reduction in the assay with SARS-CoV-2 5'-UTR RNA was determined as 0.4. The NMR binding call in the assay on SARS-CoV-2 3'-UTR RNA came to 1; with SARS-CoV-2 3_SL1 RNA, 0; with SARS-CoV-2 3_SL1+2 RNA, 0; in the assay on SARS-CoV-2 3_SL2 RNA, 0; in the assay with SARS-CoV-2 3_SL3base RNA [2], 0; in the assay on SARS-CoV-2 3_s2m RNA it was 0.

For the molecule `CC(=O)N1CCOC(CO)C1` (configuration not stated), the NMR binding call with SARS-CoV-2 3'-UTR RNA, in the assay on SARS-CoV-2 3_SL1 RNA, with SARS-CoV-2 3_SL1+2 RNA, with SARS-CoV-2 3_SL2 RNA, in the assay with SARS-CoV-2 3_SL3base RNA [2] and in the assay with SARS-CoV-2 3_s2m RNA was 0 each time.

Consider `NC(=O)C1CCN(CCc2ccccc2)CC1`, for which the NMR binding call in the assay on SARS-CoV-2 3'-UTR RNA, with SARS-CoV-2 3_SL1 RNA, with SARS-CoV-2 3_SL1+2 RNA, in the assay with SARS-CoV-2 3_SL2 RNA, with SARS-CoV-2 3_SL3base RNA [2] and in the assay with SARS-CoV-2 3_s2m RNA was 0 in each case.

Regarding `CC(C)(C)N1CC(O)C1`, the NMR binding call in the assay on SARS-CoV-2 3'-UTR RNA, in the assay on SARS-CoV-2 3_SL1 RNA, in the assay on SARS-CoV-2 3_SL1+2 RNA, with SARS-CoV-2 3_SL2 RNA, in the assay on SARS-CoV-2 3_SL3base RNA [2] and with SARS-CoV-2 3_s2m RNA was 0 throughout.

Consider `CCOc1ccc(C(=O)Nc2ccccc2)cc1`, for which the NMR binding call with SARS-CoV-2 3'-UTR RNA, with SARS-CoV-2 3_SL1 RNA, with SARS-CoV-2 3_SL1+2 RNA, in the assay with SARS-CoV-2 3_SL2 RNA and in the assay on SARS-CoV-2 3_SL3base RNA [2] was 0 throughout.

As for `CN1CCN(c2ccc(C#N)cc2)CC1`, in the assay with SARS-CoV-2 5_SL7 RNA, the T2 signal reduction is 0.32. Besides, the NMR binding call in the assay on SARS-CoV-2 3'-UTR RNA is 1; in the assay with SARS-CoV-2 3_SL1 RNA it was 0; in the assay on SARS-CoV-2 3_SL1+2 RNA, 0; in the assay on SARS-CoV-2 3_SL2 RNA, 0.

Take `CS(=O)(=O)NCCc1ccccc1`: the NMR binding call with SARS-CoV-2 3'-UTR RNA, with SARS-CoV-2 3_SL1 RNA, in the assay with SARS-CoV-2 3_SL1+2 RNA, in the assay on SARS-CoV-2 3_SL2 RNA, in the assay on SARS-CoV-2 3_SL3base RNA [2] and with SARS-CoV-2 3_s2m RNA was 0 throughout.

For `COc1cccc(C(=O)Nc2ccccc2F)c1`, the NMR binding call in the assay on SARS-CoV-2 3'-UTR RNA, in the assay on SARS-CoV-2 3_SL1 RNA, in the assay on SARS-CoV-2 3_SL1+2 RNA, in the assay with SARS-CoV-2 3_SL2 RNA, in the assay on SARS-CoV-2 3_SL3base RNA [2] and in the assay on SARS-CoV-2 3_s2m RNA was 0 throughout.

In the case of `CC(C)C(=O)NCC1CCCNC1` (configuration not stated), the NMR binding call in the assay with SARS-CoV-2 3'-UTR RNA, in the assay with SARS-CoV-2 3_SL1 RNA, in the assay on SARS-CoV-2 3_SL1+2 RNA, with SARS-CoV-2 3_SL2 RNA, in the assay with SARS-CoV-2 3_SL3base RNA [2] and in the assay with SARS-CoV-2 3_s2m RNA was 0 throughout.

`O=C(Nc1cccnc1)c1cnn2cccnc12` yielded a T2 signal reduction with SARS-CoV-2 5_SL5 RNA of 0.97. The NMR binding call in the assay on SARS-CoV-2 3'-UTR RNA was found to be 1; with SARS-CoV-2 3_SL1 RNA it was 0; in the assay with SARS-CoV-2 3_SL1+2 RNA, 0; in the assay on SARS-CoV-2 3_SL2 RNA, 0; in the assay on SARS-CoV-2 3_s2m RNA, 0.

On to `O=C(Nc1nnc[nH]1)c1cccnc1Cl`, for which the NMR binding call with SARS-CoV-2 3'-UTR RNA, with SARS-CoV-2 3_SL1 RNA, with SARS-CoV-2 3_SL1+2 RNA, in the assay on SARS-CoV-2 3_SL2 RNA, in the assay on SARS-CoV-2 3_SL3base RNA [2] and with SARS-CoV-2 3_s2m RNA was 0 in each case.

For the molecule `COCc1nnc(N)s1`, the NMR binding call with SARS-CoV-2 3'-UTR RNA, in the assay on SARS-CoV-2 3_SL1 RNA, in the assay on SARS-CoV-2 3_SL1+2 RNA, in the assay with SARS-CoV-2 3_SL2 RNA, with SARS-CoV-2 3_SL3base RNA [2] and with SARS-CoV-2 3_s2m RNA was 0 in each case.

Turning to `NC(=O)c1ccnc(NC2CC=CC2)c1`, the figures for the T2 signal reduction in the assay with SARS-CoV-2 5_SL4 RNA and in the assay on SARS-CoV-2 5_SL5 RNA were 0.26 and 0.22, respectively. Besides, the NMR binding call came out at 1 in the assay on SARS-CoV-2 3'-UTR RNA; 0 in the assay with SARS-CoV-2 3_SL1 RNA; 1 in the assay with SARS-CoV-2 3_SL1+2 RNA; 0 in the assay with SARS-CoV-2 3_SL3base RNA [2]; 0 in the assay on SARS-CoV-2 3_s2m RNA.

These data come from the supplement of paper PMC8426693.
